In all, about 320,000 compounds went through this assay and about 22,000 (6.9%) were called active. The shares of active, inactive and inconclusive entries below differ from those in the screen. Calls come from the whole dose curve; as a rule, active = well fitted inhibition curve with a large enough effect; inconclusive = small, poorly fitted or top-dose-only effect, or another doubt; inactive = no such curve, though single readings can be large or run the other way. Where the call is inconclusive, the potency comes from a doubtful curve fit.
Test: Primary qHTS for delayed death inhibitors of the malarial parasite plastid, 96 hour incubation
Details: P. falciparum luciferase reporter growth; series mostly up to 28.7 µM; activity change, negative = inhibition: at the top concentration
In short: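 P. falciparum expressing integrated firefly luciferase, in erythrocytes at 2% hematocrit, 0.05% parasitemia, incubated with compounds 96 h at 37 C, 5% CO2. Growth inhibition read as loss of luminescence; two-generation exposure targets delayed-death apicoplast inhibitors.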
% is set by controls: 0 for no effect and ±100 for the full control effect; potency is the fitted concentration of half-maximal effect.

SMILES	Potency	activity change, negative = inhibition
Cc1ccc(NC(=O)CSc2ccc(-c3cccnc3)nn2)cc1	inconclusive: 10.4 µM [inhibitor, single point]	
O=C(/C=C/c1ccco1)Nc1nc(-c2ccccn2)cs1	inconclusive: 13.1 µM [inhibitor, single point]	
Cc1ccccc1Cn1nc(C)c(NC(=O)c2noc3c2CCCC3)c1C	inconclusive: 1.17 µM [inhibitor, partial curve, poor fit]	
O=C(NC(c1ccccc1)c1ccccc1)c1cccc(S(=O)(=O)NCc2ccccc2)c1	inconclusive: 18.5 µM [inhibitor, single point]	
Cc1nc(-c2ccc(C(=O)N3CCCC3)cc2)cs1		inactive: -13.5%
Cc1ccc(C(=O)NC(=S)NNC(=O)c2ccc([N+](=O)[O-])cc2)cc1	inconclusive: 14.7 µM [inhibitor, partial curve, poor fit]	
Fc1ccc(C2c3[nH]c4ccccc4c3CCN2Cc2ccoc2)cc1 (configuration not stated)	inconclusive: 9.28 µM [inhibitor, partial curve, poor fit]	
NC(=S)N/N=C1\CC(n2nnnc2-c2ccccc2)C2COC1O2 (configuration not stated)	inconclusive: 18.5 µM [inhibitor, single point]	
O=c1c2ccccc2ncn1CCOc1ccccc1[N+](=O)[O-]		inactive: 22.3%
COc1cccc(OCC(=O)Nc2c3c(nn2-c2ccccc2)CS(=O)(=O)C3)c1		inactive: -22.2%
CCN(CC)c1ccc(NC(=O)c2ccccc2OCC(=O)OC)cc1		inactive: -25.7%
CC(=C/c1ccccc1)/C=N/NC(=O)CSc1nc(C)cc(C)n1		inactive: 1.64%
O=C(/C=C/c1ccccc1Cl)NNC(=O)c1ccncc1		inactive: 31%
COc1ccc(-n2cnnc2SC(C)C(=O)Nc2cccc([N+](=O)[O-])c2)cc1 (configuration not stated)	inconclusive: 18.5 µM [inhibitor, single point]	
N#CCc1nc2c3c4c(sc3ncn2n1)CCCC4	active: 10.4 µM	
OCC1(Cc2ccccc2)CCCN(Cc2ccc3c(c2)OCCO3)C1 (configuration not stated)	inconclusive: 18.5 µM [inhibitor, single point]	
O=C(CCC(=O)Nc1ccccc1Cl)NNC(=O)COc1ccc([N+](=O)[O-])cc1		inactive: -6.36%
CC(=O)c1cccc(CN2CCCC(CCC(=O)NCc3ccc(F)c(F)c3)C2)c1 (configuration not stated)	inconclusive: 14.7 µM [inhibitor, single point]	
COc1ccc(-c2csc(NC(=O)CSCc3c(C)noc3C)n2)cc1OC	inconclusive: 10.4 µM [inhibitor, single point]	
CCOC(=O)c1cc2c(=O)n3ccccc3nc2n(CCCOC)c1=NC(=O)C(C)(C)C		inactive: 0.642%
NS(=O)(=O)c1ccc(CCNC(=O)CNC(=O)c2ccc(F)cc2)cc1		inactive: 33.1%
COc1ccc(-n2ncc(C(C)NS(=O)(=O)c3ccc(C)s3)c2C)cc1 (configuration not stated)	active: 8.28 µM	
CCCC(=O)Nc1ccc(S(=O)(=O)Nc2cc(OC)ncn2)cc1		inactive: 17.5%
O=C(NC1CCN(Cc2ccc(Cl)c(Cl)c2)CC1)c1ccccc1	inconclusive: 10.4 µM [inhibitor, single point]	

SMILES	Potency	activity change, negative = inhibition
CCCCCCCCC(=O)N/N=C(\C)c1ccc(O)cc1O	inconclusive: 2.62 µM [inhibitor, partial curve, poor fit]	
CC1CN(c2ncnc3c2oc2ccccc23)CC(C)O1 (configuration not stated)	inconclusive: 18.5 µM [inhibitor, single point]	
CC(C)(C)c1ccc(-n2ncc3c2CCCC3NC(=O)CCN2CCCCC2=O)cc1 (configuration not stated)		inactive: 93.8%
C/C(=N/NC(=O)c1cc2ccccc2cc1O)c1ccco1		inactive: 13.9%
Cc1cccc2[nH]c(CCNC(=O)C3CCC(=O)N(CCc4cccc(F)c4)C3)nc12 (configuration not stated)		inactive: 26.6%
CCOC(=O)/C=C1\CN(CCC(C)C)S(=O)(=O)c2ccccc21	active: 14.7 µM	
COc1cccc(NC(=S)N2CCC(N(C)CC3CCCO3)CC2)c1 (configuration not stated)	inconclusive: 14.7 µM [inhibitor, partial curve]	
C/C(CC(=O)Nc1ccccc1C)=N\NC(=O)Cc1csc(N)n1		inactive: -3.56%
COC(=O)c1ccc(NC(=O)Cn2c([N+](=O)[O-])cnc2C)cc1	inconclusive: 18.5 µM [inhibitor, single point]	
NC(=O)CSc1oc(-c2ccco2)nc1S(=O)(=O)c1ccc(F)cc1	inconclusive: 5.22 µM [inhibitor, partial curve]	
COc1ccc(N(C(=O)c2ccccc2C)S(=O)(=O)c2cccs2)cc1	active: 8.28 µM	
COc1ccccc1NC(C)C(=O)Nc1ccc(C(C)=O)cc1 (configuration not stated)		inactive: -20.4%
COc1ccc(C(=O)C2CCN(C(=O)c3ccc(C)cc3)CC2)cc1	inconclusive: 0.928 µM [inhibitor, full curve]	
O=C(NCCCn1ccnc1)c1ccc(Br)s1		inactive: 14.9%
Cn1c(N)c(C(=O)CSc2nnc(C3CC3)n2Cc2ccccc2)c(=O)[nH]c1=O	inconclusive: 16.5 µM [inhibitor, single point]	
Cc1ccc(S(=O)(=O)N2CCCCC2)cc1C(=O)N(C)CC(=O)Nc1ccc(Cl)c(C(F)(F)F)c1	inconclusive: 14.7 µM [inhibitor, partial curve]	
COc1ccc(-n2c(SCC(=O)NCc3ccco3)nnc2-c2c[nH]c3ccccc23)cc1	inconclusive: 10.4 µM [inhibitor, partial curve]	
O=C(Nc1ccccc1C(=O)N1CCN(c2cccc(Cl)c2)CC1)C1=CSCCO1	inconclusive: 11.7 µM [inhibitor, partial curve, poor fit]	
COc1ccc(CNC(=O)CCCn2nc(C)c3c(C)n(-c4ccc(C)cc4)nc3c2=O)cc1	inconclusive: 7.38 µM [inhibitor, partial curve]	
CCCCNC(=O)COC(=O)c1cc(S(=O)(=O)N2CCCCCC2)ccc1OC	inconclusive: 2.94 µM [inhibitor, single point]	
Cc1ccc(-n2ncc3c(N4CCCC4)ncnc32)c(C)c1	inconclusive: 18.5 µM [inhibitor, single point]	
CCN(C(=O)c1ccc(NC(=O)c2ccco2)cc1)c1ccccc1	active: 9.28 µM	
Cc1cc(N2CCOCC2)ccc1/C=C1/SC(=O)NC1=O		inactive: -12.9%

Gathered by group: the entries above with an NH in an aromatic ring.
SMILES	Potency	activity change, negative = inhibition
Fc1ccc(C2c3[nH]c4ccccc4c3CCN2Cc2ccoc2)cc1 (configuration not stated)	inconclusive: 9.28 µM [inhibitor, partial curve, poor fit]	
Cc1cccc2[nH]c(CCNC(=O)C3CCC(=O)N(CCc4cccc(F)c4)C3)nc12 (configuration not stated)		inactive: 26.6%
Cn1c(N)c(C(=O)CSc2nnc(C3CC3)n2Cc2ccccc2)c(=O)[nH]c1=O	inconclusive: 16.5 µM [inhibitor, single point]	
COc1ccc(-n2c(SCC(=O)NCc3ccco3)nnc2-c2c[nH]c3ccccc23)cc1	inconclusive: 10.4 µM [inhibitor, partial curve]	
